Results from PubChem BioAssay AID1439 (NMMLSC, 2008).
The campaign covered roughly 220,000 compounds. About 770 (0.35%) were called active. This list was built around the results that the source calls inconclusive (neither active nor inactive); the mix of calls is not that of the screen. Cut-off read from the data, not from the text of the source: active = binding response below about 49% or above about 150%; inconclusive = no clear call, values can overlap the other calls; inactive = in between.

Protein sequences, listed by entry. Tags and fused reporters are not part of them.
UniProt P09471, whole entry, looked up: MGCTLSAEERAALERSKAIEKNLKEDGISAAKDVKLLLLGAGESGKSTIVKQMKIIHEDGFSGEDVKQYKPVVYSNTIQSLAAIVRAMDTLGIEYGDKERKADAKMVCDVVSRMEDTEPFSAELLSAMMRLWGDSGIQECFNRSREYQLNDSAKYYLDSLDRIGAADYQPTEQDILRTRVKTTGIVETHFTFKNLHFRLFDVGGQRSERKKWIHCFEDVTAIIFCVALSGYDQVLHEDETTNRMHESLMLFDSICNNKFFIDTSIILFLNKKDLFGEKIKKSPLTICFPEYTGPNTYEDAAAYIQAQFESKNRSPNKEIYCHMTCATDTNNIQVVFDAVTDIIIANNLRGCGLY

Target: Guanine nucleotide-binding protein G(o) subunit alpha (Homo sapiens) (UniProt P09471)
Experiment: RGS7-Galphao binding modulators, primary screen, biochemical, multiplexed bead flow cytometry (AID 1439);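 note: fluorescent Galphao held in activated GDP-AlF4 state binding bead-coupled RGS7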
Conditions: at 10 µM, actives lie on both sides

| SMILES | binding response (% of control) |
| --- | --- |
| O=C(NCCCl)Nc1cc([N+](=O)[O-])ccc1Cl | inconclusive: 89% |
| COc1ccc2c(c1)c(CC(=O)Nc1cccc(S(N)(=O)=O)c1)c(C)n2C(=O)c1ccc(Cl)cc1 | inconclusive: 132% |
| CN(C)/C=C(\C#N)C(=O)N/N=C/c1ccccc1 | inactive: 99.7% |
| CCOC(=O)C1CCCNC1=O (stereo unspecified) | inconclusive: 89.2% |
| COc1ccc(C(=O)NC(=S)NCCc2ccccc2)cc1 | inconclusive: 91.5% |
| Cc1ccc(-n2nc(-c3ccc(OC(F)(F)F)cc3)cc2N)cc1C | inconclusive: 69.5% |
| CCOc1cc(N2CCOCC2)c(OCC)cc1NC(=O)CSc1ncn[nH]1 | inconclusive: 122% |
| COc1ccc(CN(C)Cc2nc3cc(OC)c(OC)cc3c(=O)[nH]2)c(OC)c1 | inconclusive: 85.1% |
| CCCCN1CNC(=S)N(CCc2ccc(OCC)c(OCC)c2)C1 | inconclusive: 63.6% |
| CN(C)S(=O)(=O)c1ccc(Cl)c(NC(=O)COC(=O)C2CSC3(C)CCC(=O)N23)c1 (stereo unspecified) | inactive: 102% |
| COCCCNC(=O)c1ccccc1C(F)(F)F | inconclusive: 106% |
| Cc1cccc(C(=O)NC(=S)NNC(=O)COc2ccc(Cl)cc2)c1 | inconclusive: 118% |
| CC(C)N(CCNCc1nnc(-c2ccccc2)o1)C(C)C | inconclusive: 99.1% |
| O=C(Cc1ccccc1)NN1C(=O)/C(=C/c2ccc(C(=O)O)cc2)SC1=S | inconclusive: 134% |
| COc1ccccc1-c1nnc2n1N=C(c1ccc(O)c(O)c1)CS2 | active: 46.9% |
| Cc1ccc(CNS(=O)(=O)c2c(C)n(C)c(=O)n(C)c2=O)cc1 | inconclusive: 116% |
| CN(Cc1ccccc1)c1ncc(C=O)s1 | inactive: 102% |
| O=C(NCc1ccc2c(c1)OCO2)C(=S)N1CCOCC1 | inconclusive: 119% |
| CC(=O)Nc1ccc(S(=O)(=O)Nc2nc3ccccc3nc2Nc2ccc(O)cc2)cc1 | inconclusive: 62.9% |
| COc1ccc(/C=C/C2=Nc3ccccc3NC(C)(C)C2)cc1OC | inconclusive: 93.8% |
| O=C(c1ccc2c(=O)n3c(nc2c1)CCCCC3)N1CCN(c2ccccc2)CC1 | inconclusive: 110% |
| NNC(=O)Cn1c(-c2nonc2N)nc2ccccc21 | inconclusive: 106% |
| Cc1n[nH]c(=S)n1/N=C/c1ccccc1OCc1ccc(Cl)cc1Cl | inactive: 87.9% |

| SMILES | binding response (% of control) |
| --- | --- |
| C=CCn1c(C(CC(C)C)CC(C)O)n[nH]c1=S (stereo unspecified) | inactive: 108% |
| COC(=O)CCC(=O)OC1(C)C(=O)C2=CN(CCN3CCOCC3)C(c3ccc(OC)cc3)=CC2=C(Br)C1=O (stereo unspecified) | inconclusive: 110% |
| CCOc1ccc2c(c1)c(N=NC(N)=S)c(O)n2C | inconclusive: 109% |
| COc1ccc(/C=N/NC(=O)Cc2cccs2)cc1 | inconclusive: 136% |
| Cc1ccc(NC(=O)CSc2nnc(CN3CCOCC3)n2C)cc1C | inactive: 95.2% |
| CC1CCCc2sc3ncn(N)c(=N)c3c21 (stereo unspecified) | inconclusive: 111% |
| CCC1=C(OC(=O)N(CC)CC)N2C(=O)OC(=NCCOC)[C@]2(Cc2ccccc2)[C@H]2C1=CC[C@H]1C(=O)N(C)C(=O)[C@H]12 | inconclusive: 106% |
| COC(=O)[C@@H]1C[C@@H]2CC[C@@H](O)C[C@@H]2N1Cc1ccc(C(F)(F)F)cc1 | inconclusive: 97.2% |
| CCC(=O)Nc1ccc(Cl)c(NC(=S)NC(C)=O)c1 | inconclusive: 94.6% |
| CCOC(=O)Cn1nc(-c2ccc(Cl)cc2)cc1N | inactive: 100% |
| Cn1cnnc1SCC(=O)Nc1ccc(N2CCOCC2)cc1 | inconclusive: 102% |
| CC1=C(C#N)c2nc(N)c(C#N)c(C)c2/C1=C\c1ccc(-c2ccccc2C(=O)O)o1 | inconclusive: 107% |
| Cn1cc(C(=O)c2ccc(Cl)cc2Cl)cc1C=O | inconclusive: 92.5% |
| CS(=O)(=O)c1ccccc1C(=O)Nc1nc2ccccc2[nH]1 | inconclusive: 2.21% |
| O=C(COC(=O)c1c[nH]c(=O)[nH]c1=O)Nc1ccccc1Br | inconclusive: 94.7% |
| COc1ccc2c(N)c(C(=O)NN)[nH]c2c1 | inconclusive: 140% |
| Cc1ccc(NC(=O)CSCC#N)cc1 | inactive: 91.3% |
| c1ccc(CSc2nc3ccccc3[nH]2)cc1 | inconclusive: 90.1% |
| CCOC(=O)C1C(=O)C=C(c2ccc(C)cc2)CC1c1cccc([N+](=O)[O-])c1 (stereo unspecified) | inactive: 99.8% |
| Cc1sc2ncnc(SCC(=O)NC(=O)c3cccn3C)c2c1C | inconclusive: 76.8% |
| Cc1ccc(C2/C(=C(/O)c3cnn(-c4ccccc4)c3C)C(=O)C(=O)N2CCCN2CCOCC2)o1 (stereo unspecified) | inconclusive: 91.4% |
| O=C(Nc1cccc(S(=O)(=O)N2CCCCCC2)c1)c1cc(=O)c2ccccc2o1 | inconclusive: 97.4% |
| CC1(c2ccccc2Cl)NC(=O)N(CC(=O)NCCC2=CCCCC2)C1=O (stereo unspecified) | inconclusive: 106% |

3 entries picked at random from the list so far, as already listed:

| SMILES | binding response (% of control) |
| --- | --- |
| COc1ccc2c(N)c(C(=O)NN)[nH]c2c1 | inconclusive: 140% |
| COC(=O)CCC(=O)OC1(C)C(=O)C2=CN(CCN3CCOCC3)C(c3ccc(OC)cc3)=CC2=C(Br)C1=O (stereo unspecified) | inconclusive: 110% |
| Cc1ccc(C2/C(=C(/O)c3cnn(-c4ccccc4)c3C)C(=O)C(=O)N2CCCN2CCOCC2)o1 (stereo unspecified) | inconclusive: 91.4% |
